This passage reports binding results from publication PMC8602821.

Experiment [1] has as its target T1, GST-fused CEBP-2 (C. elegans) (UniProt Q8IG69).
T1 sequence: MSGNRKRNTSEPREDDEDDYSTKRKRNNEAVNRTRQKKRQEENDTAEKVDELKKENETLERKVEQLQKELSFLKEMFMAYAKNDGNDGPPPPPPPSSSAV
Briefly: pull-down; GST-fused CEBP-2 (or GST) from bacterial extract added to lysate of HEK293T cells transfected with ZIP-11-GFP; GST-beads overnight at 4°C; working buffer 50 mM HEPES pH 7.4, 100 mM NaCl, 50 mM KCl with Triton X-100; blot with anti-GFP and anti-GST.

Experiment [2] concerns the target T2, ZIP-11-GFP (C. elegans) (UniProt Q9N5A8).
T2 sequence: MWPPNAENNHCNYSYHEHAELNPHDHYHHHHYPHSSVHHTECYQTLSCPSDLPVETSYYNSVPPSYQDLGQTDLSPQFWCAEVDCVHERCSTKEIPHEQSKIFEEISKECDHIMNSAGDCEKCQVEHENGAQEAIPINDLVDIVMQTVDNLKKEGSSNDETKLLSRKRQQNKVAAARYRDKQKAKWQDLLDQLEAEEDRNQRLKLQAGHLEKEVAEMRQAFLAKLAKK
Briefly: co-IP; ZIP-11-GFP and CEBP-2-Flag co-expressed in 293T cells; lysate in IPB (50 mM HEPES pH 7.7, 100 mM NaCl, 50 mM KCl, 2 mM MgCl2, 2 mM CaCl2, 1 mM EDTA) with Triton X-100; anti-GFP-Trap-A beads overnight at 4°C; blot with anti-Flag.

These are yes or no findings as the source states them, for the method shown. In cells and extracts the contact can be indirect. Some results given as binding are weak or reduced against the parent protein; the word gives no strength. Tags and fused reporters may be left off the sequences shown.

B1: ZIP-11-GFP (protein, UniProt Q9N5A8 1-228)
chain: MWPPNAENNHCNYSYHEHAELNPHDHYHHHHYPHSSVHHTECYQTLSCPSDLPVETSYYNSVPPSYQDLGQTDLSPQFWCAEVDCVHERCSTKEIPHEQSKIFEEISKECDHIMNSAGDCEKCQVEHENGAQEAIPINDLVDIVMQTVDNLKKEGSSNDETKLLSRKRQQNKVAAARYRDKQKAKWQDLLDQLEAEEDRNQRLKLQAGHLEKEVAEMRQAFLAKLAKK
With B1, the binding entry in experiment [1] is reported as “binds”.

B2: CEBP-2-Flag (protein, UniProt Q8IG69 1-100)
chain: MSGNRKRNTSEPREDDEDDYSTKRKRNNEAVNRTRQKKRQEENDTAEKVDELKKENETLERKVEQLQKELSFLKEMFMAYAKNDGNDGPPPPPPPSSSAV
Turning to B2, the binding entry in experiment [2] is listed as “binds”.
